According to the supplement of paper PMC6411743:
± gives the standard deviation of the averaged measurements. Only a part is listed here, and it is no random draw. Small differences around the control level are noise.

The chains behind the UniProt entries cited, without tags or fusion partners. Where a name states a change or a piece, a line headed by the entry shows the natural chain unless it says otherwise.
UniProt P84085: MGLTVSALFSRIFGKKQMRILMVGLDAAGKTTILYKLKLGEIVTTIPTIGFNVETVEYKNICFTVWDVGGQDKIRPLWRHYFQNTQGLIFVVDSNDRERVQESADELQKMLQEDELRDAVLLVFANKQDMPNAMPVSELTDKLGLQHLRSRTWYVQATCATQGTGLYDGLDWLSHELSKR
UniProt P59190: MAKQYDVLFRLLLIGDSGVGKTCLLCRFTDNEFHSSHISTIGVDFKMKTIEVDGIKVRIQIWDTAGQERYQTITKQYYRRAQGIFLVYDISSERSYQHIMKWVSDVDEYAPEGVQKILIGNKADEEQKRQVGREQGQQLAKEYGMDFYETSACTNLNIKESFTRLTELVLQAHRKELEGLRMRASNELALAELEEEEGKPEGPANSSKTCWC
UniProt Q00688: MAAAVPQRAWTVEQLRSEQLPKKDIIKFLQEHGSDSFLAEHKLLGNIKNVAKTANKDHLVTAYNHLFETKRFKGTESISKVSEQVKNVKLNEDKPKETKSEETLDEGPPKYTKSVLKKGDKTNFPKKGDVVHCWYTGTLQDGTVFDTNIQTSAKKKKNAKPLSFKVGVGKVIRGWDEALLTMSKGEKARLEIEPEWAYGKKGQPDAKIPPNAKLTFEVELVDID
UniProt P83916, whole entry, looked up: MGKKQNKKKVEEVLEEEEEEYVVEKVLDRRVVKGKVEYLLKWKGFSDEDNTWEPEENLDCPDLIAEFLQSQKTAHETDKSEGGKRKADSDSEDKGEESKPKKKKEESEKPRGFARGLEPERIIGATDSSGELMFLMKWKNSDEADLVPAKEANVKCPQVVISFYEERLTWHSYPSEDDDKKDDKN
UniProt P67870, whole entry: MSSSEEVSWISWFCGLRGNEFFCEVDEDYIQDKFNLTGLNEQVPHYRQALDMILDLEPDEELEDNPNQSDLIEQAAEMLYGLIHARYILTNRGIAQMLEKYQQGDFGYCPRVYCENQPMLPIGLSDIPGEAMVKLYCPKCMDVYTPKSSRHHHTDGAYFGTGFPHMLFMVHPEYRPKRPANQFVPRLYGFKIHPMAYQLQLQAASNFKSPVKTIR
UniProt P61009: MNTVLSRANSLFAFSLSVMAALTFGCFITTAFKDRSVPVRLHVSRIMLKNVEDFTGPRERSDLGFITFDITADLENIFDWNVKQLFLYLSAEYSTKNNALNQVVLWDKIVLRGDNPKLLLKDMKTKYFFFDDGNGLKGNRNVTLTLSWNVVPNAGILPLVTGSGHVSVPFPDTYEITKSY
UniProt Q04721: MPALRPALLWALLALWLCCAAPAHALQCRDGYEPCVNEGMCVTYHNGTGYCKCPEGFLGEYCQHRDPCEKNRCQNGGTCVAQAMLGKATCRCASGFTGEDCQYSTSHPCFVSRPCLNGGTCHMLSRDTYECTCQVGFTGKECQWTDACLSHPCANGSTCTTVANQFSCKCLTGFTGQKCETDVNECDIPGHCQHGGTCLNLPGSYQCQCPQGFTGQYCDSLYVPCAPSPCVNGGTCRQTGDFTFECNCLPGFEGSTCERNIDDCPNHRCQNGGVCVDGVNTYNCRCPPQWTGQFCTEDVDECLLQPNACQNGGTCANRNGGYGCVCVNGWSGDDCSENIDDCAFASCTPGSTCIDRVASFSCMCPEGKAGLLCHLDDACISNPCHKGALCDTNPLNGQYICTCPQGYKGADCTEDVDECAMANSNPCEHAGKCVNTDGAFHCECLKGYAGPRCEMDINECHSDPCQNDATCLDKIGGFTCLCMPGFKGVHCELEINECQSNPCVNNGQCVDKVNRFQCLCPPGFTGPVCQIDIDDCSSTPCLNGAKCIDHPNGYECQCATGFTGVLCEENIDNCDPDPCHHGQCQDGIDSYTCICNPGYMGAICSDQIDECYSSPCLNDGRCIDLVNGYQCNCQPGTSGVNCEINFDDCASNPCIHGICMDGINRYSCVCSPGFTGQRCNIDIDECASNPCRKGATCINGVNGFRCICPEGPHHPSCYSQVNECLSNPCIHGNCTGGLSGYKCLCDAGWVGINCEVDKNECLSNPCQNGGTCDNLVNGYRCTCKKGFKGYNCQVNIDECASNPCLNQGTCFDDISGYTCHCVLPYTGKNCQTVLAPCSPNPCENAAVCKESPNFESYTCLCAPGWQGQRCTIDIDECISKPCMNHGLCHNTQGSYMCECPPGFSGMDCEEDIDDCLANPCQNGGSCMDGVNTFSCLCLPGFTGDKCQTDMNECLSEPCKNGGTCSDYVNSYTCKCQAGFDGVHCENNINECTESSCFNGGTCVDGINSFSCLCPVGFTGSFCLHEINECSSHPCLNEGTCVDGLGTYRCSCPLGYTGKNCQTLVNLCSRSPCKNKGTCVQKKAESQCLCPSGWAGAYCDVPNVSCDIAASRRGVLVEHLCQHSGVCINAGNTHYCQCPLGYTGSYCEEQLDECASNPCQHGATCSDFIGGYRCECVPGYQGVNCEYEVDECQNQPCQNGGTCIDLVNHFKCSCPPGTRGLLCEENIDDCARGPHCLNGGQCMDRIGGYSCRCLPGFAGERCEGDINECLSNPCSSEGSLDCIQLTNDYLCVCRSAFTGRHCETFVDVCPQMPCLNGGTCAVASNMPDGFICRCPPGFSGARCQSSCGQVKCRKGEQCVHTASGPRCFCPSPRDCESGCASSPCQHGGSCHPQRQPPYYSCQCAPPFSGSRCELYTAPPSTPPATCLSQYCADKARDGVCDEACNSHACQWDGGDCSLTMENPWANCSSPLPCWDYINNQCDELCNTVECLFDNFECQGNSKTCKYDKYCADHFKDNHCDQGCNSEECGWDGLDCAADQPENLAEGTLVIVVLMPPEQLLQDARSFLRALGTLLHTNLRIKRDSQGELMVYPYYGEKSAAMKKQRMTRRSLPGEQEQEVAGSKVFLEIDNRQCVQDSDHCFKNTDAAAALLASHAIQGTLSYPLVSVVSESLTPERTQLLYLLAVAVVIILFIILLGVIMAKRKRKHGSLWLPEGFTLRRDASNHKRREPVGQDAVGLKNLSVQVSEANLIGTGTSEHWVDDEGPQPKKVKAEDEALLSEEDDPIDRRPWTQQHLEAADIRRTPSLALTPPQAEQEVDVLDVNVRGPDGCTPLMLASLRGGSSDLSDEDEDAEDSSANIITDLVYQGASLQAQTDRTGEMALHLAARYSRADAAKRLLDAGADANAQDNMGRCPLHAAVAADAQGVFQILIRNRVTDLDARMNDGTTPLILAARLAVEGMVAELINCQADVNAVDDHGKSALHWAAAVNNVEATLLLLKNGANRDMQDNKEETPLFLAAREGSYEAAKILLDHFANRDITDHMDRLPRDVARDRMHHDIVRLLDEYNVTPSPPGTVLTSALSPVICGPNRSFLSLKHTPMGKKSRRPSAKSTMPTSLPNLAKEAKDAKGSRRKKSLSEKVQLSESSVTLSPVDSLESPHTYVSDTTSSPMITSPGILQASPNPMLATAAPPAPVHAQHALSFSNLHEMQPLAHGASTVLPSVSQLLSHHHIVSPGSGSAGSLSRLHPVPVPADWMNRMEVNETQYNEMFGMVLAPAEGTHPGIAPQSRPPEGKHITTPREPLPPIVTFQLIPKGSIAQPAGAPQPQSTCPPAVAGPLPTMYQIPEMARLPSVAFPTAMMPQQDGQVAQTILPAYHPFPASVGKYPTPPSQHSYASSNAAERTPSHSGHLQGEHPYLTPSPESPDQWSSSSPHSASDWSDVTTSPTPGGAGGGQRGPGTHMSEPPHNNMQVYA
UniProt Q96PN7: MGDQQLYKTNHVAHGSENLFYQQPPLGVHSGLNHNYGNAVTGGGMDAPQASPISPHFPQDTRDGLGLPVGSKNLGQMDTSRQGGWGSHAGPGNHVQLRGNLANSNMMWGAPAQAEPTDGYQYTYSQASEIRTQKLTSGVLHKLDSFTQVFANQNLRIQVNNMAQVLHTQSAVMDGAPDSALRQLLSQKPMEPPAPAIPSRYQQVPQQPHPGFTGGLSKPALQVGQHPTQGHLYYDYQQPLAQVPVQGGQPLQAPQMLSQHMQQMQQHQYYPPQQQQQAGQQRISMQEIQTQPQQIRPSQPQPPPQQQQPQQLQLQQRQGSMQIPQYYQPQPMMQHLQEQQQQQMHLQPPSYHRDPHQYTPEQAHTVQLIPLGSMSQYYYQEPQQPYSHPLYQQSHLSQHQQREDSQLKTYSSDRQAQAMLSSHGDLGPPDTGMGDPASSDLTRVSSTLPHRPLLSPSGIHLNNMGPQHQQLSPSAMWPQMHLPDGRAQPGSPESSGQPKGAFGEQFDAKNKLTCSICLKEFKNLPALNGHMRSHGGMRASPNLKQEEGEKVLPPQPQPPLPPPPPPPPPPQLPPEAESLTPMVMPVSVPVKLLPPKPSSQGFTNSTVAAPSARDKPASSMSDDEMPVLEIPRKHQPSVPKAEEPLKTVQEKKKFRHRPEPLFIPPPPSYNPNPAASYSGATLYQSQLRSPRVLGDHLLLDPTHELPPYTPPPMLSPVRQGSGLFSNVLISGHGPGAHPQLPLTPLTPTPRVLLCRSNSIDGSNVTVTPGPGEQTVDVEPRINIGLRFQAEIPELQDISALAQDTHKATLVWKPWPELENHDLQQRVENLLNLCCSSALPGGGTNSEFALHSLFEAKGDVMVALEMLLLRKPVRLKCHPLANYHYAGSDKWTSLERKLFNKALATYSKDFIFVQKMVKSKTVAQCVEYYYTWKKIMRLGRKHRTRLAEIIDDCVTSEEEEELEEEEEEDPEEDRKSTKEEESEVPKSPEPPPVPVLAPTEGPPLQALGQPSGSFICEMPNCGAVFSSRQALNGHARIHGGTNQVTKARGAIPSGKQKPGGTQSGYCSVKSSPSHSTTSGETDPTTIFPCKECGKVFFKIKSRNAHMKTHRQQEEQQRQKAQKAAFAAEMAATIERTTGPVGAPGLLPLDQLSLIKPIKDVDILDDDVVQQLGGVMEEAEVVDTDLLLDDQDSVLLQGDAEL
UniProt Q01518, whole entry: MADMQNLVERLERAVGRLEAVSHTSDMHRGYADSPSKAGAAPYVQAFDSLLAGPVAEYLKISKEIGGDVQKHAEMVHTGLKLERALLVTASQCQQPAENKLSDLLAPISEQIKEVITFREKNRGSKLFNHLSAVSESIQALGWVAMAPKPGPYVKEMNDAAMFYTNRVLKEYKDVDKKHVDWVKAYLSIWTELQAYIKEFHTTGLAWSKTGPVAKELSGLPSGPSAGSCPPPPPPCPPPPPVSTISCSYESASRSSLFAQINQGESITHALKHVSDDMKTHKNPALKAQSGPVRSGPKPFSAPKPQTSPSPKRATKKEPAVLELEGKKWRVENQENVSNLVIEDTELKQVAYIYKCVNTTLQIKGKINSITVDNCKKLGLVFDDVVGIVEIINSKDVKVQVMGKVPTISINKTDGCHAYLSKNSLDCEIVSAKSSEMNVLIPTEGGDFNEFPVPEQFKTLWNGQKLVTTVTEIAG
UniProt Q06330: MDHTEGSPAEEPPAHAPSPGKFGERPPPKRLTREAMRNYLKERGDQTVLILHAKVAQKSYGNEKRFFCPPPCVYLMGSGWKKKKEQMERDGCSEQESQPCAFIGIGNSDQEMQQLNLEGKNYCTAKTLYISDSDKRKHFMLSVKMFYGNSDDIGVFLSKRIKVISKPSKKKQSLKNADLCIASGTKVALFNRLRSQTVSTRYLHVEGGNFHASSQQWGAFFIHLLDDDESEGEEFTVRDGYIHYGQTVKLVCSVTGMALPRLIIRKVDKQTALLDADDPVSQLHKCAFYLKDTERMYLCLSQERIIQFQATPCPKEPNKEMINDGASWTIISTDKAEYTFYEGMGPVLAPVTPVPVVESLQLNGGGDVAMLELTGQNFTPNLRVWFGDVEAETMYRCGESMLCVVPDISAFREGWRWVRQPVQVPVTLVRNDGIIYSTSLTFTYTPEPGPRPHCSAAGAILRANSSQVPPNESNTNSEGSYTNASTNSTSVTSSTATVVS
UniProt P84090, whole entry, looked up: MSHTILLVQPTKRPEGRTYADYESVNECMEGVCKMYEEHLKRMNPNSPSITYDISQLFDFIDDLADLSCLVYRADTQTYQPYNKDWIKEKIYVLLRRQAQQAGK
UniProt P78356: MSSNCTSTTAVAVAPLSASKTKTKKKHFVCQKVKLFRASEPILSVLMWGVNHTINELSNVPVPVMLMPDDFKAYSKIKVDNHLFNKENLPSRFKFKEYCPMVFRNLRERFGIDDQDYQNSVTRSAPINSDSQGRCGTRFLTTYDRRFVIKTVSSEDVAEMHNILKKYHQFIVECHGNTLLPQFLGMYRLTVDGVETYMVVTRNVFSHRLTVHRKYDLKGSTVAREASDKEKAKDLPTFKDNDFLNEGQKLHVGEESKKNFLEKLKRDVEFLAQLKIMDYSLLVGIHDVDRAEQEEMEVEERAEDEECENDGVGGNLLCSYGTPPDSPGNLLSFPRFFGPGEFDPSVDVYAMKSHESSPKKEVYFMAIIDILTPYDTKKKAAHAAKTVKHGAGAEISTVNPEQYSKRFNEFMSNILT
UniProt P84095: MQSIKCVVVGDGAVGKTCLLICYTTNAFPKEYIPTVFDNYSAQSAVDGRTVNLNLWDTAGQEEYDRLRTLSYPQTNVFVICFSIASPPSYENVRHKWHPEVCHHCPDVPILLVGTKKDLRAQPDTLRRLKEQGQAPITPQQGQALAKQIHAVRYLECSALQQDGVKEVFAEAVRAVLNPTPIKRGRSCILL

Compound: Nc1ncnc2c1ncn2[C@@H]1O[C@H](COP(=O)(O)OP(=O)(O)NP(=O)(O)O)[C@@H](O)[C@H]1O [adenylyl imidodiphosphate]
Assay: NP40-soluble protein abundance relative to vehicle (solubility fold change) (ratio); higher = more soluble protein in presence of AMP-PNP
Procedure, shortened: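 In three independent experiments, Jurkat crude lysate made by Dounce homogenisation was treated for 10 min at room temperature and then 3 min at 37 °C with eight concentrations ranging from 0.1 to 10 mM. It was then solubilised with 0.8% NP40 plus benzonase for 60 min at 4 °C and ultracentrifuged. The supernatant was TMT-labelled for LC-MS/MS, and each value is the fold change against the detergent-processed vehicle for the same replicate, using vsn-normalised intensities.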

Target | NP40-soluble protein abundance (concentration: 0.1mM) | NP40-soluble protein abundance (concentration: 0.5mM)
UniProt P62081 | 1.03 ± 0.021 | 1.01 ± 0.041
UniProt Q03188 and related entries | 0.975 ± 0.032 | 0.971 ± 0.01
UniProt P84085 | 1.022 ± 0.0065 | 0.989 ± 0.055
GSTO1 (UniProt P78417) | 1.01 ± 0.063 | 1.01 ± 0.094
YBEY (UniProt P58557) | 1.01 ± 0.058 | 0.9967 ± 0.0094
UniProt Q05655 | 1.007 ± 0.0044 | 1.01 ± 0.034
UniProt P63272 | 0.9677 ± 0.0092 | 0.997 ± 0.013
UniProt P62306 | 1.03 ± 0.051 | 1.03 ± 0.1
UniProt P59190 | 1.011 ± 0.0096 | 1.01 ± 0.017
UniProt P60900 and related entries | 0.976 ± 0.017 | 0.977 ± 0.039
FKBP3 (UniProt Q00688) | 0.964 ± 0.021 | 1.09 ± 0.1
UniProt Q01105-2 | 0.88 ± 0.15 | 0.941 ± 0.065
UniProt P62851 | 1.04 ± 0.07 | 1.01 ± 0.045
UniProt P83916 | 0.994 ± 0.063 | 1.03 ± 0.022
UniProt P62899 | 1.04 ± 0.015 | 1.01 ± 0.03
UniProt P67870 and related entries | 0.979 ± 0.029 | 0.997 ± 0.042
UniProt P61009 | 1.06 ± 0.11 | 1.09 ± 0.12

Target | NP40-soluble protein abundance (concentration: 0.1mM) | NP40-soluble protein abundance (concentration: 0.5mM)
XPC (UniProt Q01831) | 0.986 ± 0.02 | 0.998 ± 0.034
NOTCH2 (UniProt Q04721) | 0.97 ± 0.028 | 0.982 ± 0.025
Q05GC8 and related entries (UniProt Q96PN7+Q05GC8) | 0.9754 ± 0.0037 | 1.013 ± 0.0064
UniProt Q01518 and related entries | 1.02 ± 0.027 | 1.02 ± 0.06
RAB4B (UniProt P61018) | 0.982 ± 0.023 | 0.984 ± 0.047
UniProt P56282 and related entries | 0.988 ± 0.013 | 0.986 ± 0.025
UniProt Q06330 and related entries | 0.986 ± 0.045 | 1.01 ± 0.097
UniProt P60953 and related entries | 0.987 ± 0.042 | 1.03 ± 0.041
UniProt P84090 | 1.01 ± 0.068 | 1.02 ± 0.074
UniProt P63010 and related entries | 0.9991 ± 0.0077 | 1.01 ± 0.034
UniProt P78356 | 0.995 ± 0.034 | 1 ± 0.038
UniProt P84095 | 0.993 ± 0.059 | 0.979 ± 0.099
UniProt P68543 and related entries | 0.977 ± 0.026 | 0.959 ± 0.073
DSTN (UniProt P60981) | 0.975 ± 0.045 | 1.03 ± 0.091
ADAM17 (UniProt P78536) | 0.975 ± 0.019 | 0.994 ± 0.031
UniProt Q06265 and related entries | 1 ± 0.027 | 1.01 ± 0.025
